Results taken from the supplement of paper PMC4371806.
Whole data set: some 2,300 compounds, median “plate-normalized OD600 growth (mean of duplicates)” near 0.29, cut for the lowest 2% near 0.22. Some of the results follow.

Tested on: Escherichia coli BW25113
Test: plate-normalized OD600 growth (mean of duplicates) (OD600 (normalized)); higher = more growth (less inhibition)
Conditions: 10 µM
Method: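 E. coli BW25113 in LB (100 µl, 96-well, no shaking) was exposed to 10 µM of each compound from a ~30,000-member library and grown at 37°C for 24 h or 15°C for 48 h, in duplicate. Growth was read as OD600 and the duplicate ODs were normalized across screening plates to correct plate-to-plate variation. Hits were >3σ below the mean OD600 at 15°C and <2σ below the mean at 37°C.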

Structure (SMILES)	plate-normalized OD600 growth (temperature: 15°C, 48 h)	plate-normalized OD600 growth (temperature: 37°C, 24 h)
CN=C1NC(=O)C(CC(=O)Nc2ccc(Cl)cc2)S1 (centres undefined)	0.249	0.631
CC(=O)Cc1cnc2ncnn2c1	0.232	0.615
S=C(NCCCn1ccnc1)Nc1cc(Cl)ccc1Cl	0.259	0.619
CN(C)c1ccc(C2NC(c3ccc(N(C)C)cc3)C(c3ccccc3)C(=O)C2c2ccccc2)cc1 (centres undefined)	0.262	0.624
Cc1cc(=O)[nH]c(-c2ccccn2)n1	0.238	0.594
O=C(CSc1nnnn1-c1ccc(OC(F)(F)F)cc1)Nc1ccc(OC(F)(F)F)cc1	0.258	0.617
O=C(Oc1cc(S(=O)(=O)c2ccccc2)ccc1[N+](=O)[O-])c1ccc(Cl)cc1	0.259	0.623
O=c1cc(-c2cccc3ccccc23)[nH][nH]1	0.26	0.631
COC(=O)CSc1nc(N)cc(=O)[nH]1	0.247	0.605
Cc1ccc(/C=N/Nc2nc3nonc3nc2Nc2ccc(I)cc2)o1	0.237	0.651
COc1ccccc1NC(=O)N1CCCN(C(=O)c2cccs2)CC1	0.234	0.599
O=C(NCCNc1ccc(C(F)(F)F)cc1[N+](=O)[O-])c1cccs1	0.246	0.606
N#Cc1sccc1Br	0.276	0.622
CCCc1cnc(N2CCCN(C(=S)Nc3cccnc3)CC2)nc1	0.26	0.642
COc1cccc(OC)c1C(C)(O)C(OC)OC (centres undefined)	0.244	0.627
Cc1nnn(-c2nonc2N)c1C(=O)N/N=C/c1ccc(O)cc1O	0.27	0.616
COc1ccc(C2CC(=O)C3=C(C2)Nc2ccccc2N(C(=O)c2cccc(Cl)c2)C3c2cccs2)cc1 (centres undefined)	0.244	0.626
COc1ccc(C(=O)CN2CCN(c3cc(C)nc4ccccc34)CC2)cc1	0.264	0.623
CC1=C(C(=O)Nc2ccc(Cl)cc2)C(c2ccco2)C(C#N)=C(SCc2ccccc2)N1 (centres undefined)	0.241	0.64
COc1cc2ncnc(Nc3cccc(Cl)c3)c2cc1OC	0.256	0.63
CSc1nc2sc(C)c(C)c2c(=O)n1-c1ccccc1	0.219	0.653

Reformatted bar-delimited: entries from further up
Structure (SMILES) | plate-normalized OD600 growth (temperature: 15°C, 48 h) | plate-normalized OD600 growth (temperature: 37°C, 24 h)
O=C(CSc1nnnn1-c1ccc(OC(F)(F)F)cc1)Nc1ccc(OC(F)(F)F)cc1 | 0.258 | 0.617
O=C(Oc1cc(S(=O)(=O)c2ccccc2)ccc1[N+](=O)[O-])c1ccc(Cl)cc1 | 0.259 | 0.623
Cc1ccc(/C=N/Nc2nc3nonc3nc2Nc2ccc(I)cc2)o1 | 0.237 | 0.651

(cont.)

Structure (SMILES)	plate-normalized OD600 growth (temperature: 15°C, 48 h)	plate-normalized OD600 growth (temperature: 37°C, 24 h)
CC(=O)Nc1ccc(-c2nc3ccccc3o2)cc1	0.244	0.591
CCN(CC)C(=S)Oc1ccc(C(=O)Nc2ccccc2)cc1	0.252	0.613
CC(OCc1ccccc1)C(NC(=O)OC(C)(C)C)C(N)=O (centres undefined)	0.241	0.605
COc1ccc(/C=C/C(=O)/C=C/c2ccc(OC)cc2)cc1	0.236	0.611
CCCCOc1ccc(/C=N/NC(=O)c2c(C)nnn2-c2nonc2N)cc1	0.266	0.615
O=C(O)c1ccc(S(=O)(=O)O)cc1N1C(=O)/C(=C/C=C/c2ccccc2)N=C1c1ccccc1	0.251	0.648
O=C(N/N=C\c1cccc(OC(=O)c2ccco2)c1)/C(=C/c1ccc2c(c1)OCO2)NC(=O)c1ccccc1	0.245	0.621
Clc1ccc(C2=CSC3=NCCCN23)cc1	0.238	0.619
NC(=NS(=O)(=O)c1cc(C(F)(F)F)cc(C(F)(F)F)c1)c1cccs1	0.251	0.627
O=C(O)c1oc(C(=O)O)c(OCc2ccccc2)c1OCc1ccccc1	0.263	0.637
CC(C)Nc1nc(Cl)nc(Nc2cccc(C(F)(F)F)c2)n1	0.262	0.62
O=C(O)c1ccc(-c2nc(-c3ccc4c(c3)C(=O)c3cc([N+](=O)[O-])ccc3-4)c(-c3ccccc3)[nH]2)cc1	0.256	0.648
CCOC(=O)c1sc2sc(C(=O)c3ccc(Cl)cc3)c(C)c2c1C	0.267	0.616
Cc1ccc2nc(/C(C#N)=C/c3ccccc3F)[nH]c2c1	0.25	0.622
CC(C)(C)OC(=O)NC(Cc1ccc(OCc2ccccc2)cc1)C(=O)O (centres undefined)	0.26	0.615
CCOC(=O)/C(C(C)=O)=C1/SCC(C)S1 (centres undefined)	0.235	0.609
Cc1ccc(S(=O)(=O)N2CCN(C(=O)Cc3ccccc3)CC2)c(C)c1	0.257	0.649
CSc1ccccc1CNC(=O)NC12CC3CC(CC(C3)C1)C2	0.226	0.633
N#CC1=C(N)C(C#N)(C#N)[C@@H](c2ccccc2F)[C@@H]2CN(Cc3ccccc3)CC=C12	0.25	0.603
COC(=O)c1ccc(C=Nc2ccc(Cl)cn2)cc1	0.229	0.608
Cc1c(O)ccc(NC(=O)c2ccc(Br)cc2)c1C	0.249	0.618

Structure (SMILES)	plate-normalized OD600 growth (temperature: 15°C, 48 h)	plate-normalized OD600 growth (temperature: 37°C, 24 h)
COc1ccc(S(=O)(=O)N(Cc2ccccc2)c2ccccc2C(=O)N/N=C(\C)c2ccccc2O)cc1	0.259	0.618
Clc1ccc(Cn2nnc(-c3ccccc3)n2)cc1	0.246	0.585
Cc1cscc1C#N	0.261	0.631
N#CC1=C(C(C#N)c2nc3ccccc3s2)NC(N)=C(C(N)=O)C1 (centres undefined)	0.258	0.618
CC(=N/O)/C(C)=C/c1ccc(Cl)cc1	0.253	0.618
CCOC(=O)c1ccc(NC(=O)CSc2nnc3c4ccccc4n(CCc4ccccc4)c3n2)cc1	0.263	0.622
C=CCn1c(SCC(=O)N2CCN(c3ccc(F)cc3)CC2)nnc1-c1cccs1	0.222	0.605
BrCC1CCCCO1 (centres undefined)	0.281	0.663
CCOc1ccc(CCN=C2CC(c3ccccc3)CC(=O)C2=C(O)CC)cc1OCC (centres undefined)	0.246	0.636
O=C(CC1CCC1)Nc1cc(Cl)ccc1Cl	0.256	0.619
N#Cc1c(Cl)cccc1N1CCCC1	0.238	0.605
NNC(=O)C1C2CCCCC21 (centres undefined)	0.244	0.627
CC1(C)CC(=O)C(C=Nn2c(C(F)(F)F)nc3ccccc3c2=O)=C(O)C1	0.227	0.654
COc1cc(OC)nc(N)n1	0.242	0.623
Cc1cc(C)c([N+](=O)[O-])c(C)c1C1C(N)=C(C#N)OC2=C1C(=O)CC(C)(C)C2 (centres undefined)	0.262	0.621
O=C1NCCN1c1ccncc1	0.241	0.662
COC(=O)C1=C(N)N(c2ccc(F)cc2)C2=C(C(=O)CCC2)C1c1ccc2c(c1)OCO2 (centres undefined)	0.249	0.598
COC(=O)CSCCc1nc(-c2ccc([N+](=O)[O-])cc2)cs1	0.252	0.613
CCOC(=O)C1=C(CSc2nc(-c3cccs3)ccc2C#N)OC(N)=C(C#N)C1c1ccc(C#N)cc1 (centres undefined)	0.256	0.608
CCCOC(=O)c1ccc(NC(=O)c2c(C)cc(C)cc2C)cc1	0.25	0.607
